Here are results for 40 targets from the supplement of paper PMC7666118.

Amino acid sequences for entries named in this document (tags omitted). A change or cut given only in a name is not applied to a line headed by its entry.
UniProt P11310: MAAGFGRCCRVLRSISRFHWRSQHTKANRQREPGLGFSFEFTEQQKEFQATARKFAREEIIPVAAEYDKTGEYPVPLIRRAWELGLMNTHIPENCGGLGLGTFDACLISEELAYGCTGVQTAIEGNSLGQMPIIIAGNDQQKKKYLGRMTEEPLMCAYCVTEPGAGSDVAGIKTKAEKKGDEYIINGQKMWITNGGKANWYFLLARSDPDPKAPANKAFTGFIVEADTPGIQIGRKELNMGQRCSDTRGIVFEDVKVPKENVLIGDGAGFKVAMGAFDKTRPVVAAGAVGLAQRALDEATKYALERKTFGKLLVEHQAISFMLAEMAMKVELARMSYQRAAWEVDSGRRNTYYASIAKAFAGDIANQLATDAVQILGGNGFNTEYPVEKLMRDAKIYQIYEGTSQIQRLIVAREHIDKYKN
UniProt Q6JQN1: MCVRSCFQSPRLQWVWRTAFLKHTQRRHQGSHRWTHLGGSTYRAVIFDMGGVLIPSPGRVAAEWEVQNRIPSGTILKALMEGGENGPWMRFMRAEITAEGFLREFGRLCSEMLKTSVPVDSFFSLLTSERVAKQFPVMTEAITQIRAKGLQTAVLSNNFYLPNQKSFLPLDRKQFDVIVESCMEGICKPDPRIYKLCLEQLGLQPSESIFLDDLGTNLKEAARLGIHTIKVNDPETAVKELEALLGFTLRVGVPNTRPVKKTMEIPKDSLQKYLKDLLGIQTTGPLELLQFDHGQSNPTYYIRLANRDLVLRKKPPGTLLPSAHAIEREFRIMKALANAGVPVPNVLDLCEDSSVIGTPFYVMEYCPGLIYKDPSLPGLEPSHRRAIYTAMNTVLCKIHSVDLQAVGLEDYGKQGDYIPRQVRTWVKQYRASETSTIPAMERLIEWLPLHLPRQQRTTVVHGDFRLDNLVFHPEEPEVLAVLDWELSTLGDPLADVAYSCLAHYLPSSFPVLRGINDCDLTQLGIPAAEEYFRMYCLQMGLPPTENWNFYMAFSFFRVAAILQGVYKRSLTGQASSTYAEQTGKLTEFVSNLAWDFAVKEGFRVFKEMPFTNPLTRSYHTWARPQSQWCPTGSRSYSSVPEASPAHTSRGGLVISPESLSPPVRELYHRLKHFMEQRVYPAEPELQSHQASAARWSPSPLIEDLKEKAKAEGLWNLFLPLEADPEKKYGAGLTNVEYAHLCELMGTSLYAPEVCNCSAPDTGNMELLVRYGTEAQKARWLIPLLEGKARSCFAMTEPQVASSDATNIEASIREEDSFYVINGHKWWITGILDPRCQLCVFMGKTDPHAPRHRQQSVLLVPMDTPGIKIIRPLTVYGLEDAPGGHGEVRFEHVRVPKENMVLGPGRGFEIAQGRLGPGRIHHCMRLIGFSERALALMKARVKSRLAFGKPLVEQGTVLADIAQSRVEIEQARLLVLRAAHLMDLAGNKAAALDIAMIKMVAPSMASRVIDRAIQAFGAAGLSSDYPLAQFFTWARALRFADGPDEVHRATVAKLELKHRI
UniProt Q7Z6V5: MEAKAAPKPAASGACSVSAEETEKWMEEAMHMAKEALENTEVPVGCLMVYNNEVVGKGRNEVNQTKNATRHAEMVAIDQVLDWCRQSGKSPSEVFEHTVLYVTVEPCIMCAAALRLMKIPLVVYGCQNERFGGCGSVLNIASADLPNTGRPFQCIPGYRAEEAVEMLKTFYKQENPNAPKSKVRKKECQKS
UniProt P11766: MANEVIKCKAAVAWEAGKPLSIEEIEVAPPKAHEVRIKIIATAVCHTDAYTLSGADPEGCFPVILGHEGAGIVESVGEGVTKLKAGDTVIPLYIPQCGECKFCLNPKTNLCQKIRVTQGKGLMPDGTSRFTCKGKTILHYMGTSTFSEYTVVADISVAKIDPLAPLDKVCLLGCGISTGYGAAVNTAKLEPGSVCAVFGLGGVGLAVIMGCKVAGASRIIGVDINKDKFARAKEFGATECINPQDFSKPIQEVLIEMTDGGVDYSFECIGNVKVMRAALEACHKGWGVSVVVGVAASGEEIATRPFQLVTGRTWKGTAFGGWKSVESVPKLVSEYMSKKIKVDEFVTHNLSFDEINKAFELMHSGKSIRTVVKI
UniProt Q9NX46: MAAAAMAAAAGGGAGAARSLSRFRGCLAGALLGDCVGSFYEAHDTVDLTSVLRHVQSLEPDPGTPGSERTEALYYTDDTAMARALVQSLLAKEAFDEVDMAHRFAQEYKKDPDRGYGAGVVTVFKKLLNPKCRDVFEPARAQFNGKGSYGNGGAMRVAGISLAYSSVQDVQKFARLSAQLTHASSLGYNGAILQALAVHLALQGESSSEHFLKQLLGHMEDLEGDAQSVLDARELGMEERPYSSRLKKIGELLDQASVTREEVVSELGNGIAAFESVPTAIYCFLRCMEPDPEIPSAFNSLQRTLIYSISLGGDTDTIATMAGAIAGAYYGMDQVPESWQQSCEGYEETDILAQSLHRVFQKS
UniProt Q15027: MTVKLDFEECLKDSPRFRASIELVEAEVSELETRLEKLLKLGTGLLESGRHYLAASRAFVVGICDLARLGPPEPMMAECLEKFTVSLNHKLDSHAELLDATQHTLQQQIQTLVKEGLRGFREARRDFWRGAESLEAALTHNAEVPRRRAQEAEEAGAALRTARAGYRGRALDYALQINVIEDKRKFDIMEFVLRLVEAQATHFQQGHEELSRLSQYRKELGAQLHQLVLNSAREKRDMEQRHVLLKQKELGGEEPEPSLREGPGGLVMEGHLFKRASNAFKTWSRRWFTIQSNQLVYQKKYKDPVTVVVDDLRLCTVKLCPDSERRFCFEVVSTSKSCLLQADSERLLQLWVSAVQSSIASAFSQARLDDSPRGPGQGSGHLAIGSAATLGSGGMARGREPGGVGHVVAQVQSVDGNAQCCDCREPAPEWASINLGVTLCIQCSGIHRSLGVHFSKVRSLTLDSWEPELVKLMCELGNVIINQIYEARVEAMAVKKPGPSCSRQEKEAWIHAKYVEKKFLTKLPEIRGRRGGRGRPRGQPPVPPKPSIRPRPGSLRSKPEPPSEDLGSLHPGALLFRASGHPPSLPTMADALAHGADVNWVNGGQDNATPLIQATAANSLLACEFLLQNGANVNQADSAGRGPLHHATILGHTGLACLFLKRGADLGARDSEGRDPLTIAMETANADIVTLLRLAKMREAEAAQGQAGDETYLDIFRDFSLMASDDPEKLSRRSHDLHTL
UniProt Q9ULC5: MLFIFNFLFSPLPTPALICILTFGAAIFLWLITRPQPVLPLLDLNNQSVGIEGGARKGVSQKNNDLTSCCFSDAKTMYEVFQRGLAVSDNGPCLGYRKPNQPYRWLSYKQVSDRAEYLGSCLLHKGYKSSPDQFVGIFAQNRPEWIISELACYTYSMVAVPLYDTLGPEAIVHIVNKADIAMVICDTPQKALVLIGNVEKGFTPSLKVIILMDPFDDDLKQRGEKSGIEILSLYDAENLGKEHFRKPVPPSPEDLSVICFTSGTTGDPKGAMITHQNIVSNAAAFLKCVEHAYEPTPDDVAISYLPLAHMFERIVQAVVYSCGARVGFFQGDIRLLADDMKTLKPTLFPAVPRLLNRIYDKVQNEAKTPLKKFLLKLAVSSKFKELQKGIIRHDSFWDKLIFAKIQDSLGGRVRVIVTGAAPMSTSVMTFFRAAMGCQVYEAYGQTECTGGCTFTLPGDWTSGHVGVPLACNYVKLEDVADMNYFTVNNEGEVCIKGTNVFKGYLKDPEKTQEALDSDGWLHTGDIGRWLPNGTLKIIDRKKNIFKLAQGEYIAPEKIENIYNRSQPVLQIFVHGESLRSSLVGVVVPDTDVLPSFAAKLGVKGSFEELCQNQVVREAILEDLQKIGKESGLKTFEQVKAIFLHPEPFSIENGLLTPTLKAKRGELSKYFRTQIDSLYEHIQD
UniProt Q5JTZ9, whole entry: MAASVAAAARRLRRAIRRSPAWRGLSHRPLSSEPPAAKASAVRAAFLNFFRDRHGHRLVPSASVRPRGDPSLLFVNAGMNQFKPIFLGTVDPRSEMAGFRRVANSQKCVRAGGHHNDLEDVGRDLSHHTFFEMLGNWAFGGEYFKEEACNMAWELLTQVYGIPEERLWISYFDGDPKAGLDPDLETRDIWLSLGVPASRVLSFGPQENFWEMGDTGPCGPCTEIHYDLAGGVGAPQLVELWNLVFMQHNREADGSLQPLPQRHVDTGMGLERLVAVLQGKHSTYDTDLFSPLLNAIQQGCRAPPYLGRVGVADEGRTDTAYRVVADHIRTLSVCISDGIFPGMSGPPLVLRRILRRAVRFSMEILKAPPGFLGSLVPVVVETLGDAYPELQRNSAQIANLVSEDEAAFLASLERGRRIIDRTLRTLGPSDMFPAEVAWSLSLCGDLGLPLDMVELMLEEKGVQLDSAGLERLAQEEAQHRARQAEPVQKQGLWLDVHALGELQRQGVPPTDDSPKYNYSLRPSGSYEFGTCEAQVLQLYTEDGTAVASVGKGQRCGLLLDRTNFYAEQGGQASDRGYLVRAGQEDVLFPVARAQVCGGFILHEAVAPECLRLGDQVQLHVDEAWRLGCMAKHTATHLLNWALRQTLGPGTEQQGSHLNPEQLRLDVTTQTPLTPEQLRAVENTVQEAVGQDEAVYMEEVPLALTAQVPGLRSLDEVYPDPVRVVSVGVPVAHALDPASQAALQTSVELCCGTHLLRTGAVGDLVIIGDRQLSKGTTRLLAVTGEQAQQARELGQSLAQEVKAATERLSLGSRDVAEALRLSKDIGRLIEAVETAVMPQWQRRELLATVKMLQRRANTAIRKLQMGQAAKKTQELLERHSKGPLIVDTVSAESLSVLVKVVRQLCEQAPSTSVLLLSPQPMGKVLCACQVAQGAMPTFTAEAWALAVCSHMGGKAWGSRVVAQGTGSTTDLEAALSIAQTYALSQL
UniProt Q15057: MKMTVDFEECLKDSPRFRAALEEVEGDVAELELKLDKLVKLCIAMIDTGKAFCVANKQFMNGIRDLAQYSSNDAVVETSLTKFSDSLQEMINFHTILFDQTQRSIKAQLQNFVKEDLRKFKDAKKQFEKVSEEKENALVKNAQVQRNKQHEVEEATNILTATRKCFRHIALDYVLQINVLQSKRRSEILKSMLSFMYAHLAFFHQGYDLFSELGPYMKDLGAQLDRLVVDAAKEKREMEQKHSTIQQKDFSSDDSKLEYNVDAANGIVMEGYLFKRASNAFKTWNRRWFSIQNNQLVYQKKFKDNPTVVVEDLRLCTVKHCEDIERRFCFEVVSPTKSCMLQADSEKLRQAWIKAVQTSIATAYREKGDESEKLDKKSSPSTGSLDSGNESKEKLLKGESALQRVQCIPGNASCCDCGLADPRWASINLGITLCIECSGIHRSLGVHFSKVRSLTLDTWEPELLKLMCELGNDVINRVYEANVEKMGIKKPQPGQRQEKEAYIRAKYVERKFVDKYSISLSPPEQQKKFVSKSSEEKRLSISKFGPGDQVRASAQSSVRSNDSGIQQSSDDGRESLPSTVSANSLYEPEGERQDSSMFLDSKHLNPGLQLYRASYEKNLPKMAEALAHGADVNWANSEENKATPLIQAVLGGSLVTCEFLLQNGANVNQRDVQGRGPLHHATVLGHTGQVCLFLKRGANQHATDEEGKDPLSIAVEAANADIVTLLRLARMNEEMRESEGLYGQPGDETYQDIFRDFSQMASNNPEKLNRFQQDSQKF
UniProt Q9BR61: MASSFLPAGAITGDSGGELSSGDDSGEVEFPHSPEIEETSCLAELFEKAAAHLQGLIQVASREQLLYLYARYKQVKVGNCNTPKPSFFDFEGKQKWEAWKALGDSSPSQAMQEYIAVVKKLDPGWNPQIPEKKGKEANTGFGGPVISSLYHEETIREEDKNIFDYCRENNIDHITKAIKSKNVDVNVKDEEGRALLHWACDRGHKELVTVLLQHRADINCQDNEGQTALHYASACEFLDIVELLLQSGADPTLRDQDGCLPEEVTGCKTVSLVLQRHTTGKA
UniProt Q9NR19, whole entry: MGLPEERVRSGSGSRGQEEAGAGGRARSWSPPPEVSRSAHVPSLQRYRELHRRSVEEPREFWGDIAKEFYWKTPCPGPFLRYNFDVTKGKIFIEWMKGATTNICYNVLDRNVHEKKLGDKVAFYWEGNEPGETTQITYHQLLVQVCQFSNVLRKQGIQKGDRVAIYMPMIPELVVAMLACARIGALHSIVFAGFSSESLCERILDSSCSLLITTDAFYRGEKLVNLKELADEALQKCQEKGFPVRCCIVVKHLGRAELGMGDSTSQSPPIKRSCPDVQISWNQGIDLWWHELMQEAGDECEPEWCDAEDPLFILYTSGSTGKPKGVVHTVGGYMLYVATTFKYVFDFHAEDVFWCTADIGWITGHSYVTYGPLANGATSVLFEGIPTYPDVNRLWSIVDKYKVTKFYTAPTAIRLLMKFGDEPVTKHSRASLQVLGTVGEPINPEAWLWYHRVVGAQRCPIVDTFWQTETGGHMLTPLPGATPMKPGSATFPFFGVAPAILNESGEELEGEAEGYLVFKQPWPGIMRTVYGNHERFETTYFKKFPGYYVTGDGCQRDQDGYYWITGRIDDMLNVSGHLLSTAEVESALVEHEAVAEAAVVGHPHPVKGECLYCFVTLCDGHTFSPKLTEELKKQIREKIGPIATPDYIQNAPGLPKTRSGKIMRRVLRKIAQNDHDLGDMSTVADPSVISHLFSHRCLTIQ

The other results are listed elsewhere or left out.

Compound in this experiment: COc1ccc(Cn2ccc3cc(C)c(C(=O)NO)cc32)cc1
In words: dose-dependent thermal stabilisation call (2D-TPP, DLPTP, 10% FDR) (binary (1 = stabilised)); higher = stabilised by the compound. As to conditions: system: HL-60 intact cells; concentration range 0.04-10 µM. The method, then: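 2D thermal proteome profiling in intact HL-60 cells treated with BRD-3811 (0, 0.04, 0.29, 2, 10 uM) for 90 min at 37 C, then heated 3 min at one of 12 temperatures (42-63.9 C). Soluble protein was quantified by TMT10 MS. The value is the DLPTP call of the paper: dose-dependent thermal stabilisation over all temperatures at 10% FDR (F-test of a dose-response against a flat model); one experiment, one call per tested protein.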
Regarding ACADM (UniProt P11310), the “dose-dependent thermal stabilisation call” value was inactive: 0. For ADCY3 (UniProt O60266) the value was inactive: 0; for ABR (UniProt Q12979), inactive: 0; for ADSL (UniProt P30566), active: 1. In the case of AAK1 (UniProt Q2M2I8) it was inactive: 0; in that of CEBPZOS HUMAN (UniProt A8MTT3), inactive: 0. For ABL2 (UniProt P42684) the value was inactive: 0. Regarding ADAM15 (UniProt Q13444), the “dose-dependent thermal stabilisation call” value is inactive: 0. In the case of AARSD1 (UniProt Q9BTE6) it was inactive: 0. Regarding ACAD10 (UniProt Q6JQN1), the “dose-dependent thermal stabilisation call” value was inactive: 0. For ADAT2 (UniProt Q7Z6V5) the value was inactive: 0; for ADH5 (UniProt P11766), inactive: 0. For ACBD5 (UniProt Q5T8D3) the value was inactive: 0.

Take AASDHPPT (UniProt Q9NRN7): the “dose-dependent thermal stabilisation call” value is inactive: 0. As to ADPRHL2 (UniProt Q9NX46), the “dose-dependent thermal stabilisation call” value was inactive: 0.

For ABHD13 (UniProt Q7L211), the “dose-dependent thermal stabilisation call” value is inactive: 0. As for ADRM1 (UniProt Q16186), the “dose-dependent thermal stabilisation call” value is inactive: 0. In the case of ACAP1 (UniProt Q15027) it was inactive: 0; in that of ACAT1 (UniProt P24752), inactive: 0. For ACOT11 (UniProt Q8WXI4) the value was inactive: 0. For ACSL5 (UniProt Q9ULC5) the value was inactive: 0; for ADAR (UniProt P55265), inactive: 0; for ACOT9 (UniProt Q9Y305), inactive: 0. As to ABCD3 (UniProt P28288), the “dose-dependent thermal stabilisation call” value was inactive: 0. In the case of ACTR10 (UniProt Q9NZ32) it was inactive: 0; in that of ABCB10 (UniProt Q9NRK6), inactive: 0. For the target AARS2 (UniProt Q5JTZ9), the “dose-dependent thermal stabilisation call” value was inactive: 0. In the case of ACAP2 (UniProt Q15057) it was inactive: 0; in that of ACADVL (UniProt P49748), inactive: 0; in that of AACS (UniProt Q86V21), inactive: 0. In the case of ACTN4 (UniProt O43707) it was inactive: 0; in that of ABHD10 (UniProt Q9NUJ1), inactive: 0. In the case of ACTR3B (UniProt Q9P1U1) it was inactive: 0; in that of ADAT3 (UniProt Q96EY9), inactive: 0; in that of ACBD6 (UniProt Q9BR61), inactive: 0. In the case of ABCF1 (UniProt Q8NE71), the “dose-dependent thermal stabilisation call” value is inactive: 0. For ACOX1 (UniProt Q15067) the value was inactive: 0; for ACOX3 (UniProt O15254), active: 1. For ACSL3 (UniProt O95573) the value was inactive: 0; for ACSS2 (UniProt Q9NR19), inactive: 0.
